Measured values reported in the supplement of paper PMC10849652.
The list shows a part of the results.

Protein sequences, listed by entry. Tags and fused reporters are not part of them. Lines headed by an entry give the natural chain unless they say otherwise; changes in a name come on top.
UniProt Q9NUL3: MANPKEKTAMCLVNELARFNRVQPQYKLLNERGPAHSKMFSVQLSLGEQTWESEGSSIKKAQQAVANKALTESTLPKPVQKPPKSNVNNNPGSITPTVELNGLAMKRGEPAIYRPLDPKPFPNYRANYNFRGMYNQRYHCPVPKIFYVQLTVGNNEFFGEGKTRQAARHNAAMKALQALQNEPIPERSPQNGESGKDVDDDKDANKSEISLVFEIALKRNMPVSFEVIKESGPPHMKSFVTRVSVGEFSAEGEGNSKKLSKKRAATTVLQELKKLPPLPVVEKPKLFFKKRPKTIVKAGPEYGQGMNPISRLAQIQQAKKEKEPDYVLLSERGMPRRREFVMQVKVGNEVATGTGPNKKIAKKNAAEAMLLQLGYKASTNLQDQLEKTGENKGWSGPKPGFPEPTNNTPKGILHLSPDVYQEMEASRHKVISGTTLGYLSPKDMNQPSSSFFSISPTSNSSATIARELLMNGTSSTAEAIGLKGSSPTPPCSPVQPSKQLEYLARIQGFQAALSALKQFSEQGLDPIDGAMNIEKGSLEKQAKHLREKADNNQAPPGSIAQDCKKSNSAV
UniProt P40763, whole entry, looked up: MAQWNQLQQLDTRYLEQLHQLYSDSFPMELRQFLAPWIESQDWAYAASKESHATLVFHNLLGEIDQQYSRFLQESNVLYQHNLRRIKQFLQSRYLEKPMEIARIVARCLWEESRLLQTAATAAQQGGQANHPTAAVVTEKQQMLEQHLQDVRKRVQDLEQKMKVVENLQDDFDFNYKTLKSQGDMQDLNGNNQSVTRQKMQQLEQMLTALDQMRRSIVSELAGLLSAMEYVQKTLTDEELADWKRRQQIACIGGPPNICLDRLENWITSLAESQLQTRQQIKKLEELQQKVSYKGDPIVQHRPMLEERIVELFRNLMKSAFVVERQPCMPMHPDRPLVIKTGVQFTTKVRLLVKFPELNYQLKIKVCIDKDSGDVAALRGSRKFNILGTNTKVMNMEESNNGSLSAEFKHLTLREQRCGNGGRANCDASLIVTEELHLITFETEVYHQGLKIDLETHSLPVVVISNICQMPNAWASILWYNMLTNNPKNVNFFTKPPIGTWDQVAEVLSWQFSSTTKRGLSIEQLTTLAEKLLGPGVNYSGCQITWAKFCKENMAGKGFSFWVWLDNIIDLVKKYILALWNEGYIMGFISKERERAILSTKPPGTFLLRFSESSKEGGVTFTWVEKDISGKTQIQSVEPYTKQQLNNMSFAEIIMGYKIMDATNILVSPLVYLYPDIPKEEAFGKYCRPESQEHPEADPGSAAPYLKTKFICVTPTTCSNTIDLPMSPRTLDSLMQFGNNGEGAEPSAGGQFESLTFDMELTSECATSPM
UniProt Q15005: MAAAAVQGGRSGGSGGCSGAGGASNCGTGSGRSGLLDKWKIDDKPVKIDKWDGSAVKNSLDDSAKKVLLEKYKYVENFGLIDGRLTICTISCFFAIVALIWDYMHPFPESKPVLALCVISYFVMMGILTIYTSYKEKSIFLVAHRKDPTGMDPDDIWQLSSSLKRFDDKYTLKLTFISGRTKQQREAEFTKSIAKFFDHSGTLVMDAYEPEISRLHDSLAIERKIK
UniProt Q5M775: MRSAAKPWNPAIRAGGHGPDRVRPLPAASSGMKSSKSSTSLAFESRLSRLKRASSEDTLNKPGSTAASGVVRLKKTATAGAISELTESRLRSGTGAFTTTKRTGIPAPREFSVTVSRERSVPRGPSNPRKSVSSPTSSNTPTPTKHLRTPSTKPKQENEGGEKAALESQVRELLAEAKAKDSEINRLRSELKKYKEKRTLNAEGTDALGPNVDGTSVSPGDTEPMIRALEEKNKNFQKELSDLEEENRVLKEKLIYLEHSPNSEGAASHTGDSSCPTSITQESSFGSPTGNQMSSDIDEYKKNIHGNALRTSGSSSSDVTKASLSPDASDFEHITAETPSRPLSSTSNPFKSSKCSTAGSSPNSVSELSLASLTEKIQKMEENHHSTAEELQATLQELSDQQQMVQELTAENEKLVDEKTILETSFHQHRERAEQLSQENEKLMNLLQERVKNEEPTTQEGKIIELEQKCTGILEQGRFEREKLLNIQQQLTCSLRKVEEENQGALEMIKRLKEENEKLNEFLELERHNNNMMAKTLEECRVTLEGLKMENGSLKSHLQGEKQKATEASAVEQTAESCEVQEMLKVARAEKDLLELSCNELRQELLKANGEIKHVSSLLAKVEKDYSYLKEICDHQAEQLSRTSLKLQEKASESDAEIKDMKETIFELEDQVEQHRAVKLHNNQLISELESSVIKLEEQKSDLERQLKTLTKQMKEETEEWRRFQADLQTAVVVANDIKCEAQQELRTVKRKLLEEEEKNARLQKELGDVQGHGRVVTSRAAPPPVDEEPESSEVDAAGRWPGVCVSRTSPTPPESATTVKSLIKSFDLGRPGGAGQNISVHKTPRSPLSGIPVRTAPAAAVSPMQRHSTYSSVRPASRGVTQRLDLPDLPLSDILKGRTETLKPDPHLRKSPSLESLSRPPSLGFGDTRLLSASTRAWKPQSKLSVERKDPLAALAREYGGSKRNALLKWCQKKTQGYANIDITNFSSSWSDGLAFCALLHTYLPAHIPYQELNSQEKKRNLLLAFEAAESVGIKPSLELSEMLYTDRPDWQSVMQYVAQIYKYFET
UniProt Q16385, whole entry, looked up: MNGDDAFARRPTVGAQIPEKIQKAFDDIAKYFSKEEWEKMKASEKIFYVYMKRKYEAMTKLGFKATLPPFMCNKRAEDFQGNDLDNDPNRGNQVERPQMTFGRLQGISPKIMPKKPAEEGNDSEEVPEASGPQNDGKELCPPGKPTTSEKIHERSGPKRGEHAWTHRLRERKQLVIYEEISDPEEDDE
UniProt P51571: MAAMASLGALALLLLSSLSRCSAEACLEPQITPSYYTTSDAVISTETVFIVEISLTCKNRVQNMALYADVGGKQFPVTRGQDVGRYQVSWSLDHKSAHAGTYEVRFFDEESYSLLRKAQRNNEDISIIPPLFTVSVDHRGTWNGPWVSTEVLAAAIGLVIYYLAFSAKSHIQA
UniProt P05455: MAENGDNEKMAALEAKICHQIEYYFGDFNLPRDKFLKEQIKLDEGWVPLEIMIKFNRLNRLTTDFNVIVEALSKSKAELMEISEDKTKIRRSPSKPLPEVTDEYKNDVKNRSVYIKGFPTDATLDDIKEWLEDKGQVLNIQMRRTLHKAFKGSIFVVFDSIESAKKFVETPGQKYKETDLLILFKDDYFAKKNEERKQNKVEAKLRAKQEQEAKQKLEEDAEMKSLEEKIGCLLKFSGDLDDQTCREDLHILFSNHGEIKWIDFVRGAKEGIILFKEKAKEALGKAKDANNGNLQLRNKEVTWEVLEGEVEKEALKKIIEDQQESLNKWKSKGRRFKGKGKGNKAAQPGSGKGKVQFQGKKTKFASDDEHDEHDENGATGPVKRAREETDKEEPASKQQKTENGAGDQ
UniProt Q9BYN0: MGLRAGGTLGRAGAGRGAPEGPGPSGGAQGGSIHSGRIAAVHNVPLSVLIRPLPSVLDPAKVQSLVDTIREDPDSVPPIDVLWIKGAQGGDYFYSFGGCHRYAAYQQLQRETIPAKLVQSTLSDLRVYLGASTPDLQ
UniProt Q9UBP0: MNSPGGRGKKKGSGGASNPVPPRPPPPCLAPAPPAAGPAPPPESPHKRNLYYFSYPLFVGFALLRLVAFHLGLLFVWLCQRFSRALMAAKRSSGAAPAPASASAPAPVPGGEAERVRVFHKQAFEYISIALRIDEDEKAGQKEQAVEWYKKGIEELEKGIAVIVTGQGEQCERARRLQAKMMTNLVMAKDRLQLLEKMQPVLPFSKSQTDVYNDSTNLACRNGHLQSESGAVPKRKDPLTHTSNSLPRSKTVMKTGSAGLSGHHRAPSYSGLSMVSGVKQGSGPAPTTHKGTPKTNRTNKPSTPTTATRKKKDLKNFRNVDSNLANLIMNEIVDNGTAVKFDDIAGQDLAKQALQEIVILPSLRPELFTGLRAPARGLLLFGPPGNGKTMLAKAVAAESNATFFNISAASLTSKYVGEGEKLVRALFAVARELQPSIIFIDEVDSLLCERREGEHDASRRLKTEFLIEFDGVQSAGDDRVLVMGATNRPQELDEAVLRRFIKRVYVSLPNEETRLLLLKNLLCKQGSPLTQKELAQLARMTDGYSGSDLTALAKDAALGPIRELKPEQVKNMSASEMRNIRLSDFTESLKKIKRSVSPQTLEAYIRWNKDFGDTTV
UniProt O00506, whole entry, looked up: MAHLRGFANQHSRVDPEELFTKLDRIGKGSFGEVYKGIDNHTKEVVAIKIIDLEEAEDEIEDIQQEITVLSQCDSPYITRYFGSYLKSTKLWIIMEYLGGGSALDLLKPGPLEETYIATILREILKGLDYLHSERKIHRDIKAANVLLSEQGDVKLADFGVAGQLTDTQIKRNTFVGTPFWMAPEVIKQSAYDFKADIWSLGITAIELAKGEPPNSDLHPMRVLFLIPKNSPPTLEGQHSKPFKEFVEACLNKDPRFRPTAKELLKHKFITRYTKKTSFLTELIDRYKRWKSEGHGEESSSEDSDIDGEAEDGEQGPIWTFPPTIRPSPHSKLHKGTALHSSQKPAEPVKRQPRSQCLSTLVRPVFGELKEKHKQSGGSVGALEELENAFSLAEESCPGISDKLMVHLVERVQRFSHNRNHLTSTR
UniProt Q9UNL2: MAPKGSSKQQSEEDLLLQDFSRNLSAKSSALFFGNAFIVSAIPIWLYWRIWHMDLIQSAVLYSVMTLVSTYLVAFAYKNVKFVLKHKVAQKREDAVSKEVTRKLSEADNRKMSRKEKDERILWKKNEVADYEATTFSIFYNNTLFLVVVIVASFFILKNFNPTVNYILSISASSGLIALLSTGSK
UniProt O76094: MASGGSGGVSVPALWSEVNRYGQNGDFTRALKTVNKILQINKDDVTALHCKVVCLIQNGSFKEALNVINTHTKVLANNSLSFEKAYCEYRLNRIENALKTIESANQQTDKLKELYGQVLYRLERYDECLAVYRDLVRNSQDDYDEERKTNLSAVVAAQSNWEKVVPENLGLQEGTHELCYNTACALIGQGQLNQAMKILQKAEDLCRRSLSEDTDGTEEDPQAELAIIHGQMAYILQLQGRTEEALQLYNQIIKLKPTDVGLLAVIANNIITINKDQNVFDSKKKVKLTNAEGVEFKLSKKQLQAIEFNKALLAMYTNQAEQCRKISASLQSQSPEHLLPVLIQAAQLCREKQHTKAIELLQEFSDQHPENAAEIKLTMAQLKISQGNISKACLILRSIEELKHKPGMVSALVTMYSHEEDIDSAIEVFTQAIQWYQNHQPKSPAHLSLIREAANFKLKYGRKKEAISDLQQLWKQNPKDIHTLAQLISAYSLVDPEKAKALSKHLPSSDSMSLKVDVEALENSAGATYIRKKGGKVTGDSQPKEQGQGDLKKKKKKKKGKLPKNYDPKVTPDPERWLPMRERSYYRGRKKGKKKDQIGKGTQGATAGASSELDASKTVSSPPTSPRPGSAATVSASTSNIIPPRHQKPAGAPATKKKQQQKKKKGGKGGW
UniProt Q8WWL2: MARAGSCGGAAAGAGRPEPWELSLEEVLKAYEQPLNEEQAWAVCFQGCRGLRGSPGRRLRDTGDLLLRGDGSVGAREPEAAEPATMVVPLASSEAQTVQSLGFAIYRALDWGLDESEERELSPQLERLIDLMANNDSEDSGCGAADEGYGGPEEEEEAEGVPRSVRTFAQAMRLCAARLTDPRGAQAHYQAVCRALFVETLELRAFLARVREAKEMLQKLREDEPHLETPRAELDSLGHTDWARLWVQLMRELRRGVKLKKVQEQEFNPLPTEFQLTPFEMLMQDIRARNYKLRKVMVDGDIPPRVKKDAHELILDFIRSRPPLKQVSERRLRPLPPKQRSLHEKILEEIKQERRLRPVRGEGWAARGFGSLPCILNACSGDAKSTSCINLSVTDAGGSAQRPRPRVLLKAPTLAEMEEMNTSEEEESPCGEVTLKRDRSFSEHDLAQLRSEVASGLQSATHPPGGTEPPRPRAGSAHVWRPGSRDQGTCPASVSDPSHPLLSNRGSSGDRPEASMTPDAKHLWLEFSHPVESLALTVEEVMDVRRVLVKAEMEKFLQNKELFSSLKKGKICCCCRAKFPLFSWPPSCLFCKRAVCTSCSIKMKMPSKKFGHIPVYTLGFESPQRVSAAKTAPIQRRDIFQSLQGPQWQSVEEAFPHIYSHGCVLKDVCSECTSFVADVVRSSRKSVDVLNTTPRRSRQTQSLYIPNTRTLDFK
UniProt Q14849, whole entry, looked up: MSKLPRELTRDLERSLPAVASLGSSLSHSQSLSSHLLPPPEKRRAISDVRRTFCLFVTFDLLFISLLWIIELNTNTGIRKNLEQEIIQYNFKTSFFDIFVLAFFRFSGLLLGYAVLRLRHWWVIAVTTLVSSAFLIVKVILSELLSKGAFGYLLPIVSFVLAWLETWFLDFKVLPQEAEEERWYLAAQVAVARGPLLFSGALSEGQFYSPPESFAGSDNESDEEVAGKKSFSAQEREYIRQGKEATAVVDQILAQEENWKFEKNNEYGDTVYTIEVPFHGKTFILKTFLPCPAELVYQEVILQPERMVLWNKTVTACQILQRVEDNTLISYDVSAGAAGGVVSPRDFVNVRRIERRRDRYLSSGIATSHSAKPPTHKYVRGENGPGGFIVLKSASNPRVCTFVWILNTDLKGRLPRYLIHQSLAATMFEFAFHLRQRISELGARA

What was measured:
Experiment in all cases: log2 fold change, soluble protein after heating vs DMSO (PISA); higher = thermal stabilisation; K562 cells, 10 uM, 30 min; active = over 0.2 and 3.5 SD of the protein, either way, in both replicates (recomputed)
[1] = compound: CC[C@@H]1C(=O)N(C)c2cnc(Nc3ccc(C(=O)NC4CCN(C)CC4)cc3OC)nc2N1C1CCCC1
Summary of the method: (§1)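 Values are thermal stability changes relative to control samples and are taken from duplicates. They are stated as log2 fold changes. Before quantification by TMTpro 16plex LC-MS/MS with equalised channel sums, K562 cells at 2×10^6 cells/mL were treated with 10 μM compound for 30 min, heated in aliquots for 3 min across 48°C-58°C, pooled, extracted in PBS with 0.5% NP-40 at 4°C, and centrifuged at 21,000xg for 90 min to give the soluble supernatant.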

volasertib = compound: CC[C@@H]1C(=O)N(C)c2cnc(Nc3ccc(C(=O)N[C@H]4CC[C@H](N5CCN(CC6CC6)CC5)CC4)cc3OC)nc2N1C(C)C [volasertib]
Summary of the method: as §1

[2] = compound: CC[C@H](C)N1C=C(C2=C(C=C(C=C21)C3=CN=C(C=C3)N4CCNCC4)C(=O)NCC5=C(C=C(NC5=O)C)C)C
Summary of the method: as §1

epoxomicin = compound: CC[C@H](C)[C@@H](C(=O)N[C@@H]([C@@H](C)O)C(=O)N[C@@H](CC(C)C)C(=O)[C@]1(CO1)C)NC(=O)[C@H]([C@@H](C)CC)N(C)C(=O)C [epoxomicin]
Summary of the method: as §1

[3] = compound: CCn1cc(-c2ccnc3[nH]c(-c4cccc(CN(C)C)c4)cc23)c(-c2ccc(NC(=O)N(C)C)cc2)n1
Summary of the method: as §1

[4] = compound: CN(C)CC(=O)Nc1ccc2[nH]c(=O)c3ccccc3c2c1
Summary of the method: as §1

[5] = compound: CN1C2=C(C3=C1C(=O)N(N=C3)CC4=CC(=CC=C4)N)SC(=C2)S(=O)C
Summary of the method: as §1

[6] = compound: CN1CCC(CNc2ccc3ncc(-c4cccc(OC(F)(F)F)c4)n3n2)CC1
Summary of the method: as §1

[7] = compound: CCn1c(C(=O)N(C2CC2)C2CC2)cc2c3c(ncn3C)c(Nc3cc(C)n(C)n3)nc21
Summary of the method: as §1

rosiglitazone = compound: CN(CCOC1=CC=C(C=C1)C[C@H]2C(=O)NC(=O)S2)C3=CC=CC=N3 (racemic) [rosiglitazone]
Summary of the method: as §1

Row | Target | log2 fold change [1] | log2 fold change (volasertib) | log2 fold change [2] | log2 fold change (epoxomicin) | log2 fold change [3] | log2 fold change [4] | log2 fold change [5] | log2 fold change [6] | log2 fold change [7] | log2 fold change (rosiglitazone)
1 | SSRP1 (UniProt Q08945) | inactive: -0.121 | active: -0.412 | inactive: 0.052 | inactive: 0.02 | inactive: 0.007 | inactive: 0.01 | inactive: -0.003 | inactive: -0.067 | – | –
2 | SRPRA (UniProt P08240) | inactive: -0.116 | inactive: -0.107 | inactive: 0.007 | inactive: 0.02 | inactive: -0.036 | inactive: 0.032 | inactive: -0.055 | inactive: 0.009 | – | –
3 | SRCAP (UniProt Q6ZRS2) | inactive: 0.068 | inactive: -0.207 | inactive: -0.059 | – | inactive: -0.041 | inactive: 0.121 | inactive: -0.001 | inactive: -0.006 | – | –
4 | ST3GAL2 (UniProt Q16842) | inactive: -0.28 | active: -0.562 | inactive: -0.053 | inactive: -0.053 | inactive: 0.062 | inactive: 0.005 | inactive: -0.071 | active: -0.474 | – | –
5 | STAU2 (UniProt Q9NUL3) | inactive: 0.2 | inactive: 0.494 | – | inactive: 0.063 | inactive: 0.12 | inactive: -0.003 | inactive: 0.356 | inactive: 0.068 | inactive: -0.008 | inactive: -0.271
6 | STARD7 (UniProt Q9NQZ5) | inactive: -0.07 | inactive: -0.032 | inactive: 0.007 | inactive: 0.024 | inactive: -0.123 | inactive: 0.012 | inactive: 0.012 | inactive: -0.158 | – | –
7 | ST6GAL1 (UniProt P15907) | active: -0.221 | inactive: -0.257 | inactive: 0.003 | inactive: -0.066 | inactive: 0.01 | inactive: 0.041 | inactive: -0.057 | inactive: -0.149 | – | –
8 | SPATA33 isoform 2 (UniProt Q96N06) | inactive: -0.092 | inactive: 0.102 | inactive: -0.098 | – | inactive: -0.008 | inactive: -0.066 | inactive: -0.06 | inactive: 0.048 | inactive: -0.128 | inactive: 0.052
9 | STAT3 (UniProt P40763) | active: -0.336 | active: -0.767 | inactive: 0.056 | inactive: 0.002 | inactive: -0.059 | inactive: 0.052 | inactive: -0.047 | active: -0.275 | – | –
10 | SPCS2 (UniProt Q15005) | inactive: 0.018 | inactive: -0.006 | inactive: 0.02 | inactive: 0.091 | inactive: -0.009 | inactive: 0.038 | inactive: -0.078 | inactive: 0.005 | – | –
11 | SPATA31E1 (UniProt Q6ZUB1) | inactive: 0.251 | inactive: 0.122 | inactive: -0.292 | – | inactive: 0.232 | inactive: 0.017 | inactive: 0.045 | inactive: -0.202 | – | inactive: 0.074
12 | SPECC1 (UniProt Q5M775) | inactive: 0.109 | inactive: 0.052 | inactive: -0.013 | inactive: -0.101 | inactive: 0.004 | inactive: -0.111 | inactive: 0.07 | inactive: -0.012 | – | –
13 | SPPL2A (UniProt Q8TCT8) | inactive: 0.014 | inactive: 0.046 | – | inactive: 0.058 | inactive: 0.083 | inactive: -0.024 | inactive: 0.025 | inactive: -0.047 | inactive: -0.099 | inactive: -0.128
14 | SRSF7 (UniProt Q16629) | inactive: 0.18 | inactive: 0.215 | inactive: -0.039 | inactive: -0.171 | inactive: 0.181 | inactive: -0.085 | inactive: 0.218 | inactive: 0.175 | – | –
15 | SSX2 (UniProt Q16385) | inactive: -0.046 | inactive: -0.102 | inactive: 0.071 | inactive: 0.131 | inactive: -0.036 | inactive: 0.007 | inactive: -0.06 | inactive: 0.021 | – | –
16 | SSR4 (UniProt P51571) | inactive: 0.004 | inactive: -0.01 | inactive: -0.004 | inactive: 0.029 | inactive: 0.002 | inactive: -0.022 | inactive: -0.028 | inactive: 0.045 | – | –
17 | SSBP4 (UniProt Q9BWG4) | inactive: 0 | inactive: -0.056 | inactive: -0.036 | – | inactive: -0.009 | – | inactive: -0.238 | inactive: 0.036 | – | –
18 | SSB (UniProt P05455) | inactive: -0.154 | inactive: -0.131 | inactive: 0.083 | inactive: -0.011 | inactive: 0.04 | inactive: -0.012 | inactive: -0.001 | inactive: -0.194 | – | –
19 | SRXN1 (UniProt Q9BYN0) | inactive: -0.031 | inactive: -0.083 | inactive: 0.027 | inactive: 0.069 | inactive: 0.159 | inactive: 0.046 | – | inactive: -0.199 | – | –
20 | SPAST (UniProt Q9UBP0) | inactive: -0.128 | inactive: -0.242 | inactive: 0.107 | inactive: 0.021 | inactive: 0.035 | inactive: 0.079 | inactive: -0.046 | inactive: -0.043 | – | –
21 | STK11IP (UniProt Q8N1F8) | inactive: -0.224 | active: -0.517 | inactive: 0.103 | inactive: 0.069 | inactive: -0.006 | inactive: 0.025 | inactive: 0.026 | inactive: -0.233 | – | –
22 | SQSTM1 (UniProt Q13501) | inactive: -0.09 | inactive: -0.204 | inactive: 0.021 | inactive: -0.056 | inactive: -0.112 | inactive: 0.042 | inactive: 0.043 | inactive: -0.022 | – | –
23 | STK25 (UniProt O00506) | inactive: -0.031 | inactive: -0.107 | inactive: 0.024 | inactive: 0.033 | inactive: -0.008 | inactive: -0.024 | inactive: 0.017 | inactive: -0.216 | – | –
24 | STEAP3 isoform 2 (UniProt Q658P3) | inactive: 0.036 | inactive: -0.013 | inactive: -0.023 | inactive: 0.01 | inactive: -0.084 | inactive: 0.002 | inactive: 0.041 | inactive: -0.096 | – | –
25 | SSR3 isoform 2 (UniProt Q9UNL2) | inactive: 0.05 | inactive: 0.059 | inactive: -0.075 | inactive: -0.054 | inactive: -0.069 | inactive: 0.087 | inactive: 0.056 | inactive: 0.195 | – | –
26 | SRP72 (UniProt O76094) | inactive: -0.093 | inactive: -0.518 | inactive: 0.119 | inactive: 0.001 | inactive: -0.034 | inactive: 0.03 | inactive: 0.119 | inactive: -0.168 | – | –
27 | SPIRE2 (UniProt Q8WWL2) | inactive: -0.023 | – | – | inactive: -0.866 | inactive: 0.041 | – | inactive: 0.222 | inactive: 0.221 | – | inactive: -0.033
28 | SPPL3 (UniProt Q8TCT6) | – | – | – | – | – | – | – | – | inactive: -0.097 | –
29 | STK16 (UniProt O75716) | – | – | – | inactive: 0.025 | – | – | – | – | inactive: -0.142 | –
30 | STARD3 (UniProt Q14849) | – | inactive: 0.115 | inactive: 0.091 | inactive: -0.019 | inactive: 0.039 | inactive: -0.037 | inactive: -0.064 | active: -0.386 | – | –

Part of the list above, tab-delimited:
Row	Target	log2 fold change [1]	log2 fold change (volasertib)	log2 fold change [2]	log2 fold change (epoxomicin)	log2 fold change [3]	log2 fold change [4]	log2 fold change [5]	log2 fold change [6]	log2 fold change [7]	log2 fold change (rosiglitazone)
16	SSR4 (UniProt P51571)	inactive: 0.004	inactive: -0.01	inactive: -0.004	inactive: 0.029	inactive: 0.002	inactive: -0.022	inactive: -0.028	inactive: 0.045	–	–
25	SSR3 isoform 2 (UniProt Q9UNL2)	inactive: 0.05	inactive: 0.059	inactive: -0.075	inactive: -0.054	inactive: -0.069	inactive: 0.087	inactive: 0.056	inactive: 0.195	–	–
